The list shows a part of the results. This is a noisy data set.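 Tm was set to 64 °C where no melting was found, and many curves are irregular.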
Compound: CCc1cnccc1C(=O)Nc1cc2c(cc1F)NC(=O)CC2
Assay: melting temperature shift (DMSO Tm minus MBE1-treated Tm) in cellular thermal proteome profiling; higher = less thermal stabilization by MBE1 (negative = stabilized by MBE1)
Details: A375

Protein sequences, listed by entry. Tags and fused reporters are not part of them. Lines headed by an entry give the natural chain unless they say otherwise; changes in a name come on top.
UniProt Q96CD2: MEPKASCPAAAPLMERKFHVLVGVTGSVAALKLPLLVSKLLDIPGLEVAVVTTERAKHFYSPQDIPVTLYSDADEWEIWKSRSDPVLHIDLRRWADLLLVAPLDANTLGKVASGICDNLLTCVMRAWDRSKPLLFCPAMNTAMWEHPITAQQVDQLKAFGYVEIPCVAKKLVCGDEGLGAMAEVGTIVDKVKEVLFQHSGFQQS
UniProt Q96CV9, whole entry: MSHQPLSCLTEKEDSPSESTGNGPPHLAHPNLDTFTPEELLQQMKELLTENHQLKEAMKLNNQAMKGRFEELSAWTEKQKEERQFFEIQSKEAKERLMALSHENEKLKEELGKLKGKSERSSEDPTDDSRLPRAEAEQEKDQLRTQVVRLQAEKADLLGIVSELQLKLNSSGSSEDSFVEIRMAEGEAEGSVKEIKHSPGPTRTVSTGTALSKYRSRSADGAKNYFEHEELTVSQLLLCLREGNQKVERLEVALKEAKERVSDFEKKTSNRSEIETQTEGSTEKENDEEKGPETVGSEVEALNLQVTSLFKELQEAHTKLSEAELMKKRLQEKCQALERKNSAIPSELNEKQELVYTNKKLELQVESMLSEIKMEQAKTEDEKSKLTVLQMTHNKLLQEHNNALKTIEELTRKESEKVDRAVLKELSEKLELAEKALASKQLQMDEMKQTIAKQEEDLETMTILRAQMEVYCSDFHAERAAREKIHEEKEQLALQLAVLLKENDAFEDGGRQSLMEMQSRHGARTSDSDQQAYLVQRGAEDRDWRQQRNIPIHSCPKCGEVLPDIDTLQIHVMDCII
UniProt Q96AY3, whole entry: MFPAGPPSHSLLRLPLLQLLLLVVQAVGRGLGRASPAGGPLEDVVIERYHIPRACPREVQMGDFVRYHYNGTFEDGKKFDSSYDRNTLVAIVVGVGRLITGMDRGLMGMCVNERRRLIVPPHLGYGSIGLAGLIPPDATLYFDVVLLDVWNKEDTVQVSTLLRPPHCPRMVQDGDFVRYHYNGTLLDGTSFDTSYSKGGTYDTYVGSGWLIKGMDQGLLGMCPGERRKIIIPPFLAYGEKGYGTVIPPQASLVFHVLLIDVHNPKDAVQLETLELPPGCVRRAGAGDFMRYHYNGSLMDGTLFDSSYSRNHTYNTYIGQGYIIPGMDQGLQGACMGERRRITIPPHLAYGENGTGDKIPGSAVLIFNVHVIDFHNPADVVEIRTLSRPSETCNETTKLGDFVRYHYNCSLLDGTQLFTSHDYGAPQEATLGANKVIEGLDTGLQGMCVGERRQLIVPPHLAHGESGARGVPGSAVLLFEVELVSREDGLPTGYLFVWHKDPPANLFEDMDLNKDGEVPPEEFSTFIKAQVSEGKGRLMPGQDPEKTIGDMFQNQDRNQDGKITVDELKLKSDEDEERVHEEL
UniProt Q8WY91: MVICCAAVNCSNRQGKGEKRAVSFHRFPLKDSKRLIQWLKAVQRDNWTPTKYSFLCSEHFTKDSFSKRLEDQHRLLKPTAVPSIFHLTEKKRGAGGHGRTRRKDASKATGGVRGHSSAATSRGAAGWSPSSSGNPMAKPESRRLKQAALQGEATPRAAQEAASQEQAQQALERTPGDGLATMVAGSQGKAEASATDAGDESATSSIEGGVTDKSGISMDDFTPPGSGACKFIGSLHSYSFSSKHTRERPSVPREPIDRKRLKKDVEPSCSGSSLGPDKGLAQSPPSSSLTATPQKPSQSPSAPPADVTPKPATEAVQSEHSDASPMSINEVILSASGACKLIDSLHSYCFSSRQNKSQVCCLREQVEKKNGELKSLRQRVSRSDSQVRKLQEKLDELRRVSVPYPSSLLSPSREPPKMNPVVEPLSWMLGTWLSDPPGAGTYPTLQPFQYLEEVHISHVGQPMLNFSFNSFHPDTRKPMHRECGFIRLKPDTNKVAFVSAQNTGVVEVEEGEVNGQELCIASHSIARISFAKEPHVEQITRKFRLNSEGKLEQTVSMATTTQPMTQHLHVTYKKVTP
UniProt Q96DB5: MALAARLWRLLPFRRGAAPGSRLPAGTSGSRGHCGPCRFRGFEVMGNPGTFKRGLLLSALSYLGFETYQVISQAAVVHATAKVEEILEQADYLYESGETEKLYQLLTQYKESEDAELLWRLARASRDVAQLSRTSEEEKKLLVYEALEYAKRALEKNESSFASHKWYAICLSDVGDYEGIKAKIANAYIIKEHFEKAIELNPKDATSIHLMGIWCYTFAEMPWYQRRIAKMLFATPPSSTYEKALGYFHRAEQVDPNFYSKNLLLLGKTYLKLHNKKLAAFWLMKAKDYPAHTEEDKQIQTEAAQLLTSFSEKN
UniProt Q92620: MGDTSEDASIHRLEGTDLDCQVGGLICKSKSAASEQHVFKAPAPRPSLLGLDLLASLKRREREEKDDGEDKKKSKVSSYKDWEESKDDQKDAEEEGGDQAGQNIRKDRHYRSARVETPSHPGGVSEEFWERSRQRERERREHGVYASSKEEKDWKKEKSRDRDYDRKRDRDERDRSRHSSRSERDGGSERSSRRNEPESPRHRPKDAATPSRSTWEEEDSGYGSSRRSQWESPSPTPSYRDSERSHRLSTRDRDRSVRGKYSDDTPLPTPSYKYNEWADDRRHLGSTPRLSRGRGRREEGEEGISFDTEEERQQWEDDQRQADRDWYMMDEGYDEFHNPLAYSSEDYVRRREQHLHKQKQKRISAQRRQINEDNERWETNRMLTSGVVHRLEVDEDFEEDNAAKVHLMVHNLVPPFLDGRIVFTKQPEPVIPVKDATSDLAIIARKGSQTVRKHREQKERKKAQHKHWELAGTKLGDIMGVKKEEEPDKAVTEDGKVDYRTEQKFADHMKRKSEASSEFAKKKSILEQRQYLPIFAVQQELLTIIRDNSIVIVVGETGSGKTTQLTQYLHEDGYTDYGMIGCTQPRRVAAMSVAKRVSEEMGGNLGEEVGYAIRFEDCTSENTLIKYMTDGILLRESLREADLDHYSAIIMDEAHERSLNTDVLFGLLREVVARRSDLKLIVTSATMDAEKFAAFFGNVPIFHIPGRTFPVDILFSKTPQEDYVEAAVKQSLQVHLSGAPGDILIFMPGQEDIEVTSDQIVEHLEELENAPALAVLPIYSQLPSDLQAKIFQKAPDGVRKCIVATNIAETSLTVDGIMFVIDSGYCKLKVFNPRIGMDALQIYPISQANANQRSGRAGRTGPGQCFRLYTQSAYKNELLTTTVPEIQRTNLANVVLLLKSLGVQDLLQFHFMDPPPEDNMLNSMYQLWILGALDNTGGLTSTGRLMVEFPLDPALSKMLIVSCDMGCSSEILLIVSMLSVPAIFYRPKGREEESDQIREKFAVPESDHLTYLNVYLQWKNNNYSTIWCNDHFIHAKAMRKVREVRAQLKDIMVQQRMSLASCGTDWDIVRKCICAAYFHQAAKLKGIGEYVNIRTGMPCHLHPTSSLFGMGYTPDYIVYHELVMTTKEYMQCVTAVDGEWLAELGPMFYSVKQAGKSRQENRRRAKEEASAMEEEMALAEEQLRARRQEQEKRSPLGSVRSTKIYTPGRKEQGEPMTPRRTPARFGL
UniProt Q92771: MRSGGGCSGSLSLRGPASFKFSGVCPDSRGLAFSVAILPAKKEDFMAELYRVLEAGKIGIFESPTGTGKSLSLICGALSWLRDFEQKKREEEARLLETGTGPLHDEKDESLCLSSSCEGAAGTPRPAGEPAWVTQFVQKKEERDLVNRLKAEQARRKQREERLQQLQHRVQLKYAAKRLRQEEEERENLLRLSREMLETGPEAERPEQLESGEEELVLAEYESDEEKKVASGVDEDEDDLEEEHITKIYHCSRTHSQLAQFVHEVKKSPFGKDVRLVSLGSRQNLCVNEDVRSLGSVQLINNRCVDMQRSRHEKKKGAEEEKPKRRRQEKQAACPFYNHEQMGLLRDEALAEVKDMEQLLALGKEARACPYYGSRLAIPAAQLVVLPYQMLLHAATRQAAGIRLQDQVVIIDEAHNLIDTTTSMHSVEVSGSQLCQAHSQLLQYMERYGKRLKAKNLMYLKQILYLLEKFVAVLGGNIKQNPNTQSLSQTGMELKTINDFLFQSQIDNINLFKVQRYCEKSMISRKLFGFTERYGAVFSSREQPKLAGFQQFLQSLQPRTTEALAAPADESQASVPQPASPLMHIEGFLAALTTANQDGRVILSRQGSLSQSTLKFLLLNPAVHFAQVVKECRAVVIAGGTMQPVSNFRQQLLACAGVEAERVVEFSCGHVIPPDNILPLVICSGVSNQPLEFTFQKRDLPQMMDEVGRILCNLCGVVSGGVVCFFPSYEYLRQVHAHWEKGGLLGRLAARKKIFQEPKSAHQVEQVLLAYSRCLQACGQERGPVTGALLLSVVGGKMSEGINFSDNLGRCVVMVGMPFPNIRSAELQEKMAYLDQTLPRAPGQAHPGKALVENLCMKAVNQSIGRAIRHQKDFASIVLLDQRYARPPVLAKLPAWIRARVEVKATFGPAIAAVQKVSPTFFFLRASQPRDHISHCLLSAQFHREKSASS
UniProt Q92979: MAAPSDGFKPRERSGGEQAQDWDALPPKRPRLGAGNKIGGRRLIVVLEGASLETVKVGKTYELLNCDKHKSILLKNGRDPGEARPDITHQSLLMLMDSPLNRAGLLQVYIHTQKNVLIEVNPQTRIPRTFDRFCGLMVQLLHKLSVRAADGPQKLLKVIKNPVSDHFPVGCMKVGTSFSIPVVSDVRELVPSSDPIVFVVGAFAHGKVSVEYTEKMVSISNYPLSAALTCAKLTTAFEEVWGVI
UniProt Q969M7: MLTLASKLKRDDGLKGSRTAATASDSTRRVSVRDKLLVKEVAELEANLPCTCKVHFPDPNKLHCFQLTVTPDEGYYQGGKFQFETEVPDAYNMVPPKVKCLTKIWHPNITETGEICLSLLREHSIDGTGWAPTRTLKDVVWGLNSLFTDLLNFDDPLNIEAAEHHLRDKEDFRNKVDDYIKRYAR
UniProt Q92968: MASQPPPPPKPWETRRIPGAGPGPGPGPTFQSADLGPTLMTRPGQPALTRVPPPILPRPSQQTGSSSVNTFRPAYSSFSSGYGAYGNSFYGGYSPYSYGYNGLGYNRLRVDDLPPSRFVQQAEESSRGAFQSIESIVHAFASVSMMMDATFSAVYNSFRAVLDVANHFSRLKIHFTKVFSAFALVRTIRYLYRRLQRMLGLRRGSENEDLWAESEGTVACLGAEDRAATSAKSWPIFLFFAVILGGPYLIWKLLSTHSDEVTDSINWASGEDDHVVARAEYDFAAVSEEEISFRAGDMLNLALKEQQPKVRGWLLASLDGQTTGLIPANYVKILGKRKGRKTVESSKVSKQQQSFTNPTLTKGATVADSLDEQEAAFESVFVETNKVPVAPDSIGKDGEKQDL
UniProt Q92613: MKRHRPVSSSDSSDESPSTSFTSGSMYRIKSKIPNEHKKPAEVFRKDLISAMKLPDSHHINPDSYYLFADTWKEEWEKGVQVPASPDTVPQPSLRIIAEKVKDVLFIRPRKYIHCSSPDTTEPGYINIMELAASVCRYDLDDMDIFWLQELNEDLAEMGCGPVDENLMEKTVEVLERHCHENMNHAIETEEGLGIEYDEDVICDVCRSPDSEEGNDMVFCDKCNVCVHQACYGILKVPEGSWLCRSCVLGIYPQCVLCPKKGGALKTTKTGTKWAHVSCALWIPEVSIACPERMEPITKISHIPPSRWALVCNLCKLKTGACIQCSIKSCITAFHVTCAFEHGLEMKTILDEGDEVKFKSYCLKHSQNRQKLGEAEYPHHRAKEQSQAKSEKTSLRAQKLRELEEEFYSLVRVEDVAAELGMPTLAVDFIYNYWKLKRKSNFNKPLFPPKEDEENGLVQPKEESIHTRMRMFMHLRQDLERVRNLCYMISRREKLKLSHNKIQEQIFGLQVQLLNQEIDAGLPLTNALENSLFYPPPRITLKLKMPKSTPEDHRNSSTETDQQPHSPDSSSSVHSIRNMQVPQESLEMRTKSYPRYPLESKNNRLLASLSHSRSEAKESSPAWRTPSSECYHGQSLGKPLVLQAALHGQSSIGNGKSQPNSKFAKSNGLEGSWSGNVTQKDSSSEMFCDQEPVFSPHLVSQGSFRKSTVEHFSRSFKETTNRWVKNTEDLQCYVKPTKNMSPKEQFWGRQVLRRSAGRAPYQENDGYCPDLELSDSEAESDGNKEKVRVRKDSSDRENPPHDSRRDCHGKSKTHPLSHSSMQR
UniProt Q92917: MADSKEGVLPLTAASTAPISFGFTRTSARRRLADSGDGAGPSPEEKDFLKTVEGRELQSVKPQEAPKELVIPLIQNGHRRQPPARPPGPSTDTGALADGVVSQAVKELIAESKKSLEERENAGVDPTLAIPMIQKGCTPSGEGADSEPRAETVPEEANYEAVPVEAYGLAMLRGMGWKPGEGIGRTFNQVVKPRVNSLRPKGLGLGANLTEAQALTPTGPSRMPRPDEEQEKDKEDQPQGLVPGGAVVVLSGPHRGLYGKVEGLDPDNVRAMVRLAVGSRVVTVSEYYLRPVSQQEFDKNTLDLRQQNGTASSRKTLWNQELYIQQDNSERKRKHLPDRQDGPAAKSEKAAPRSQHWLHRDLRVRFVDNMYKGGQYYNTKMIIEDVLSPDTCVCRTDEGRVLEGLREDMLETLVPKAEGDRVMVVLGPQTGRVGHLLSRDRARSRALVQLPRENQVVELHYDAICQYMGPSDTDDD

| Target | melting temperature shift (MBE1 concentration: 100 nM) [°C] | melting temperature shift (MBE1 concentration: 1 uM) [°C] |
| --- | --- | --- |
| GATAD2B (UniProt Q8WXI9) | -0.41 | -0.448 |
| UniProt Q96CD2 | -2.32 | -4.06 |
| TESC (UniProt Q96BS2) | 1.37 | 0.464 |
| CELF1 (UniProt Q92879) | -1.05 | -0.349 |
| MYDGF (UniProt Q969H8) | -2.1 | -1.07 |
| OPTN (UniProt Q96CV9) | 0.931 | 0.464 |
| PRKCDBP (UniProt Q969G5) | -1.96 | 0.208 |
| FKBP10 (UniProt Q96AY3) | -0.805 | 0.114 |
| GRAMD1A (UniProt Q96CP6) | 0.492 | 0.195 |
| LARP4B (UniProt Q92615) | 0.299 | 0.0122 |
| UniProt Q92619 | 0.659 | 0.0183 |
| COPS5 (UniProt Q92905) | -0.838 | 0.39 |
| UniProt Q8WY91 | -1.68 | -1.31 |
| TCEAL4 (UniProt Q96EI5) | -8.06 | -7.53 |
| RMDN1 (UniProt Q96DB5) | -0.503 | -0.416 |
| PIEZO1 (UniProt Q92508) | -0.179 | 1.92 |
| RAB8B (UniProt Q92930) | -1.72 | -3.91 |
| ERLEC1 (UniProt Q96DZ1) | -1.27 | 0.598 |
| DHX38 (UniProt Q92620) | 0.055 | 0.818 |
| UniProt Q92771 | -0.969 | -0.536 |
| GCDH (UniProt Q92947) | -1.34 | 0 |
| VTI1A (UniProt Q96AJ9) | -2.82 | 1.27 |

Copied from the list.
Entry of COPS5 (UniProt Q92905) under melting temperature shift (MBE1 concentration: 100 nM) [°C]: -0.838
Entry of CELF1 (UniProt Q92879) under melting temperature shift (MBE1 concentration: 1 uM) [°C]: -0.349

Additional records.

| Target | melting temperature shift (MBE1 concentration: 100 nM) [°C] | melting temperature shift (MBE1 concentration: 1 uM) [°C] |
| --- | --- | --- |
| UniProt Q92754 | 1.65 | -0.702 |
| EMG1 (UniProt Q92979) | -2.01 | -1.29 |
| ITFG2 (UniProt Q969R8) | -1.02 | 0.359 |
| FAM3C (UniProt Q92520) | -1.82 | -0.382 |
| WBP2 (UniProt Q969T9) | -0.858 | 0.382 |
| GTF2H4 (UniProt Q92759) | -0.205 | -0.307 |
| RNF25 (UniProt Q96BH1) | -0.0802 | 0.202 |
| EDEM1 (UniProt Q92611) | 0.657 | 0.41 |
| UBE2F (UniProt Q969M7) | -0.369 | -0.0872 |
| PEX13 (UniProt Q92968) | -1.19 | -0.288 |
| APPBP2 (UniProt Q92624) | 0.563 | 3.19 |
| UniProt Q969T7 | -0.729 | 1.13 |
| JADE3 (UniProt Q92613) | -1.79 | 0.299 |
| UniProt Q92546 | 1.19 | 0.855 |
| STAM (UniProt Q92783) | -0.533 | 0.208 |
| UniProt Q8WYP5 | 0.409 | 0.525 |
| TTC17 (UniProt Q96AE7) | -1.19 | 0.611 |
| TTN (UniProt Q8WZ42) | -1.63 | 0.0494 |
| GPKOW (UniProt Q92917) | -0.63 | -0.456 |
| NMD3 (UniProt Q96D46) | -0.785 | 0.852 |
| PBXIP1 (UniProt Q96AQ6) | -7.29 | -6.34 |

— the supplement of paper PMC12595434, “Development of retinoid nuclear receptor pathway antagonists through targeting aldehyde dehydrogenase 1A3” (iScience, 2025)
